This note sets out measurements from article PMC3153501 (PLoS ONE, 2011).

This data set in a line: peptide synthesis. The note with it: whole synthesis.

Where a sequence shows no end group, the ends are not given.

For the sequence LYNELYVYNI, the difficulty met entry is “Denotes peptides that could not be synthesized at high purity”.

Take SIPPIFQLCL: the difficulty met result was “Denotes peptides that could not be synthesized at high purity”.

FLWDVLATT: the difficulty met entry is “Denotes peptides that could not be synthesized at high purity”.

For ASGDKIVMVV, the difficulty met result is on record as “Denotes peptides that could not be synthesized at high purity”.

As to CMLKGRAGT, the difficulty met entry is “Denotes peptides that could not be synthesized at high purity”.
